# From patent US6440980B1, “Synergistic inhibition of viral replication by long-chain hydrocarbons and nucleoside analogs” (Avanir Pharmaceuticals, priority 1996, dated 2002)
# At least one compound was matched to its structure with a doubt left.
# Tested on: HSV-1
# Assay: HSV-1 PFU production in Vero cell cultures
# Assay type: cell-based, HSV-1 (MacIntyre strain)
# Details: presence or absence of n-docosanol
structure (smiles),measurement,value
CO[C@H]1/C=C/O[C@@]2(C)Oc3c(C)c(O)c4c(O)c(c(/C=N/N5CCN(C)CC5)c(O)c4c3C2=O)NC(=O)/C(C)=C\C=C\[C@H](C)[C@H](O)[C@@H](C)[C@@H](O)[C@@H](C)[C@H](OC(C)=O)[C@@H]1C [rifampicin],inhibition of HSV replication (in words),did not inhibit HSV replication
